Source: article PMC4150788
These are yes or no findings as the source states them, for the method shown. Binding seen in cells or lysates may run through a third protein. Some binding calls cover weakened binding; strength is not graded here. Tags and fused reporters may be left off the sequences shown.

The chains behind the UniProt entries cited, without tags or fusion partners.
UniProt P32597: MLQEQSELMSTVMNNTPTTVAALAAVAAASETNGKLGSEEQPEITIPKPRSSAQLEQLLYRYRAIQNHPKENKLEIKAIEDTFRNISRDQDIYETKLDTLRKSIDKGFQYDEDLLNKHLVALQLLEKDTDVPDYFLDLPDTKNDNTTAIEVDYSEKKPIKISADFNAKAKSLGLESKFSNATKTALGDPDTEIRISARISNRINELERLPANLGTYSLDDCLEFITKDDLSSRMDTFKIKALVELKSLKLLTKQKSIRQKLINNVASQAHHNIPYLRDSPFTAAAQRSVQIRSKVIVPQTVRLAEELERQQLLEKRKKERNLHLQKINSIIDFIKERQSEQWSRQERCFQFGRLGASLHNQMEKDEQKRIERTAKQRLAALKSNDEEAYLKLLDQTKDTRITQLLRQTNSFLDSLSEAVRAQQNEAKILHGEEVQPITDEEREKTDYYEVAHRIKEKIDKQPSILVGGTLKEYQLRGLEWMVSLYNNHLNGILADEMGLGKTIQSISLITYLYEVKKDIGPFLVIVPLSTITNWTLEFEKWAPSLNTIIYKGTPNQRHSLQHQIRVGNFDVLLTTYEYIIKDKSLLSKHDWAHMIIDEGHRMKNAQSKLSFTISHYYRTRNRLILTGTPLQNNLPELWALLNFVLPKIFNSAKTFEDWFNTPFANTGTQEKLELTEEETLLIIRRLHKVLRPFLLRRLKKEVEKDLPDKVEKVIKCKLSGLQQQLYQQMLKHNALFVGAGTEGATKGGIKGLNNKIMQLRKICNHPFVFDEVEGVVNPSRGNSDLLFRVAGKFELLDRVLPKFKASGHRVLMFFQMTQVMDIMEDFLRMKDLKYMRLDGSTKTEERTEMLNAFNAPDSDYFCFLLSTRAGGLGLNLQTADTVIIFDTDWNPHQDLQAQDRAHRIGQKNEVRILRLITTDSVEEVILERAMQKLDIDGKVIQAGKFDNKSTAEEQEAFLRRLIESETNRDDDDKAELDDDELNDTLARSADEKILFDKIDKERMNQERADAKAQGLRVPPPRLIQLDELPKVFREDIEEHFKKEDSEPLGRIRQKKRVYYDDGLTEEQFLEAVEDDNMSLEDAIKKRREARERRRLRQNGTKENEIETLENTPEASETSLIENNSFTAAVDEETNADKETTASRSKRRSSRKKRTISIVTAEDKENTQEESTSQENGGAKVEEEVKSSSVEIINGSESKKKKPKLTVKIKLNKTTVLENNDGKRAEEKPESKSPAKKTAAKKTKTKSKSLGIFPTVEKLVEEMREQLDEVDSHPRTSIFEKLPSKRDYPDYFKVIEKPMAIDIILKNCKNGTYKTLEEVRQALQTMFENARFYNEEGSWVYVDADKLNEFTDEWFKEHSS

Target: Sth1-Myc (S. cerevisiae) (UniProt P32597)
Assay: co-IP; Sth1-Myc precipitated with 9E10 anti-Myc antibody on Dynabeads from whole-cell extracts of bud27Δ cells expressing Bud27-GFP; western blot with anti-Myc and anti-GFP

B1: Bud27-GFP (protein, UniProt P43573 1-796)
chain: MDLLAASVESTLKNLQDKRNFLSEQREHYIDIRSRLVRFINDNDDGEEEGEGQGMVFGDIIISTSKIYLSLGYEYYVEKTKEEAITFVDDKLKLMEDAIEQFNLKIEEAKKTLDNLNHMEDGNGIEEDEANNDEDFLPSMEIREELDDEGNVISSSVTPTTKQPSQSNSKKEQTPAVGPKEKGLAKEKKSKSFEENLKGKLLKRNDEVKKKVQPSKVDTENVYTFADLVQQMDQQDELEDGYIETDEINYDYDAFENSNFKVNDNYEEDDEDEDEEEYLNHSIIPGFEAQSSFLQQIQRLRAQKQSQDHEREEGDVNKSLKPILKKSSFAENSDKKQKKKQVGFASSLEIHEVENLKEENKRQMQSFAVPMYETQESTGIANKMTSDEFDGDLFAKMLGVQEADEVHEKYKEELINQERLEGEASRSNRRTRVSRFRKDRASKKENTLSTFKQETTRSVENEVVEKEPVVGDIIEKEPVVGDVIEKEPVVGDVIEKEPAVTDIVEREPAVNDIVERKPVVGDIIEKEPTINDIVEKEPEINSKSEFETPFKKKKLKSLQKPRSSKSMKKKFDPKILENISDDDYDDDDDGNKKLLSNKSKNNTDEQDKFPSKIQEVSRSMAKTGATVGSEPVRITNVDYHALGGNLDDMVKAYSLGLYDDDLEEDPGTIVEKLEDFKEYNKQVELLRDEIRDFQLENKPVTMEEEENDGNVMNDIIEHEFPESYTNDEDEVALHPGRLQEEVAIEYRRLKEATASKWQSSSPAAHTEGELEPIDKFGNPVKTSRFRSQRLHMDSKP
In the case of B1, the binding is reported as “binds”.
